Measured data: PubChem BioAssay AID686938 (Drosophila RNAi Screening Center, 2013)
In all, the deposit lists about 23,000 reagents; this is an unselected part of those that have a named target and a result. Over the whole deposit, 75 (0.33%) are marked active. 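Raw plate signals without normalisation; calls rest on plate z-scores that were not deposited; ratio present for only 364 wells.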 The numbers tell different reagents against one gene apart. A plus sign joins genes that one reagent is predicted to hit. Reagent sequences are not shown. Not given: the dose of the treatment.

- Aim: 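Knock-downs reducing store-operated calcium influx in Drosophila cells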 (primary screen)
- Cells: Drosophila S2R+ cells
- Reagent: long dsRNA against Drosophila genes, about 0.25 µg dsRNA per well, roughly 10,000 cells
- Duration: 5 days of knock-down before the calcium assay
- Treatment: thapsigargin (SERCA pump blocker) to empty calcium stores; entry signal taken 4 min after adding it
- Detection: 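Per-well fluo-4 fluorescence in two replicates, unnormalised, measured in resting cells and 4 min after store depletion by the SERCA blocker thapsigargin; ratio of the two present in few wells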
- Direction: calcium entry signal: higher = stronger calcium signal after store depletion; entry to resting ratio: higher = more calcium entry relative to resting level; resting calcium signal: higher = higher resting calcium signal
- Hit rule: 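Hit if the duplicate-averaged plate z-score for entry over resting signal is under −3; wells with weak total dye signal (Fmax z < −2) or more than 5 off-targets removed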
- Calls: active = strongly reduced calcium entry; inactive = no strong reduction

gene	reagent	calcium entry signal, replicate 1 (fluorescence units)	calcium entry signal, replicate 2 (fluorescence units)	entry to resting ratio	resting calcium signal, replicate 1 (fluorescence units)	resting calcium signal, replicate 2 (fluorescence units)	activity call
ppk12 (pickpocket 12)	1	2.46e7	2.78e7		1.35e7	1.20e7	inactive
CG15177	1	4.80e7	3.96e7		2.48e7	1.92e7	inactive
Snr1 (Snf5-related 1)	1	2.42e7	3.23e7		1.30e7	1.78e7	inactive
Zyx (Zyxin)	1	3.88e7	4.39e7		1.97e7	1.95e7	inactive
tHMG1 (testis-enriched HMG-box-containing protein 1)	1	3.34e7	3.80e7		5.69e7	1.75e7	inactive
mAcon1 (Mitochondrial aconitase 1)	1	3.61e7	5.24e7		1.67e7	1.95e7	inactive
RPA3 (Replication protein A3)	1	3.33e7	3.56e7		1.97e7	2.29e7	inactive
CG14598	1	3.12e7	2.38e7		1.45e7	1.14e7	inactive
dbr (debra)	1	3.83e7			1.72e7		inactive
CG8534	1	3.26e7	4.16e7		1.57e7	1.86e7	inactive
CG1523	1	4.55e7	4.61e7		1.84e7	2.01e7	inactive
CG15387	1	3.49e7	3.59e7		1.60e7	1.67e7	inactive
CG1812	1	2.60e7	3.08e7		1.24e7	1.27e7	inactive
CG9240	1	2.98e7	3.62e7		1.56e7	1.54e7	inactive
tld (tolloid)	1	3.08e7	3.91e7		1.73e7	1.45e7	inactive
Wdr37 (WD repeat domain 37)	1	5.04e7	3.88e7		2.25e7	1.75e7	inactive
CG33500	1	3.34e7	3.28e7		1.82e7	1.80e7	inactive
CG42561	1	3.79e7	4.52e7		1.74e7	2.39e7	inactive
ddbt (deadbeat)	1	2.68e7	3.79e7		1.50e7	1.81e7	inactive
ArgRS-m (Arginyl-tRNA synthetase, mitochondrial)	1	4.06e7	3.32e7		1.79e7	1.41e7	inactive
CG15784	1	2.23e7	2.33e7		1.13e7	1.30e7	inactive
Eaat1 (Excitatory amino acid transporter 1)	1	3.59e7	4.83e7		1.51e7	2.00e7	inactive
asRNA:CR43463 + Pgant35A	1	4.74e7	4.66e7		2.13e7	2.24e7	inactive
karr	1	4.73e7	4.88e7		2.39e7	2.26e7	inactive
CG14034	1	3.91e7	3.83e7		1.88e7	1.67e7	inactive
tim (timeless)	1	3.90e7			2.44e7		inactive
CG1105	1	3.39e7	4.91e7		1.48e7	1.98e7	inactive
CR14798 (pseudo)	1	4.38e7	5.75e7	2.2	2.01e7	2.16e7	inactive
RpS16 (Ribosomal protein S16)	1	1.68e7	1.67e7		1.09e7	1.08e7	inactive
CG13048	1	3.22e7	5.93e7		1.80e7	2.22e7	inactive
PGAP5 (Post-GPI attachment to proteins 5)	1	3.06e7	4.11e7		1.42e7	1.62e7	inactive
CG4210	1	4.16e7	5.28e7		1.87e7	6.43e7	inactive
CG17991	1	3.73e7	6.31e7		2.05e7	2.59e7	inactive
ND-B14.5B (NADH dehydrogenase (ubiquinone) B14.5 B subunit)	1	2.93e7	2.40e7		1.44e7	1.24e7	inactive

The list goes on; the last 7 above are carried over.
gene	reagent	calcium entry signal, replicate 1 (fluorescence units)	calcium entry signal, replicate 2 (fluorescence units)	entry to resting ratio	resting calcium signal, replicate 1 (fluorescence units)	resting calcium signal, replicate 2 (fluorescence units)	activity call
CR14798 (pseudo)	1	4.38e7	5.75e7	2.2	2.01e7	2.16e7	inactive
RpS16 (Ribosomal protein S16)	1	1.68e7	1.67e7		1.09e7	1.08e7	inactive
CG13048	1	3.22e7	5.93e7		1.80e7	2.22e7	inactive
PGAP5 (Post-GPI attachment to proteins 5)	1	3.06e7	4.11e7		1.42e7	1.62e7	inactive
CG4210	1	4.16e7	5.28e7		1.87e7	6.43e7	inactive
CG17991	1	3.73e7	6.31e7		2.05e7	2.59e7	inactive
ND-B14.5B (NADH dehydrogenase (ubiquinone) B14.5 B subunit)	1	2.93e7	2.40e7		1.44e7	1.24e7	inactive
Polr3B (RNA polymerase III subunit B)	1	2.78e7	2.53e7		1.21e7	1.21e7	inactive
DnaJ-1 (DnaJ-like-1)	1	3.60e7	2.70e7		2.50e7	1.16e7	inactive
CG2017	1	4.05e7	4.72e7		1.65e7	2.05e7	inactive
Polr1E (RNA polymerase I subunit E)	1	3.95e7	4.10e7		5.99e7	1.97e7	inactive
Polr1E (RNA polymerase I subunit E)	2	5.03e7	3.78e7		2.48e7	1.67e7	inactive
Edg84A (Ecdysone-dependent gene 84A)	1	3.92e7	2.92e7		1.81e7	1.45e7	inactive
CG7218	1	3.54e7	3.41e7		1.62e7	1.43e7	inactive
CG6984	1	2.16e7	2.57e7		1.01e7	1.18e7	inactive
GMF (Glia maturation factor)	1	4.85e7			2.35e7		inactive
CG34164	1	3.52e7	2.02e7		1.69e7	9.71e6	inactive
ND-42 (NADH dehydrogenase (ubiquinone) 42 kDa subunit)	1	3.38e7	3.24e7		1.73e7	1.46e7	inactive
CCT7 (Chaperonin containing TCP1 subunit 7)	1	3.58e7	2.22e7		1.95e7	1.29e7	inactive
CG10000	1	4.02e7	5.64e7		1.98e7	2.41e7	inactive
Sox15 (Sox box protein 15)	1	3.71e7	2.95e7		2.04e7	1.53e7	inactive
CG14636	1	2.74e7	4.72e7		1.44e7	1.92e7	inactive
Cpr92A (Cuticular protein 92A)	1	4.08e7	4.83e7		5.33e7	2.00e7	inactive
RPA1 (Replication protein A1)	1	1.86e7	2.03e7		1.21e7	1.16e7	inactive
Ostgamma (Oligosaccharide transferase gamma subunit)	1	5.17e7			2.71e7		inactive
CAH5 (Carbonic anhydrase 5)	1	2.86e7	5.76e7		1.53e7	2.26e7	inactive
CG17260	1	4.29e7			2.50e7		inactive
dhd (deadhead)	1	2.17e7	3.36e7		1.12e7	1.48e7	inactive
ImpE2 (Ecdysone-inducible gene E2)	1	4.42e7	3.66e7		2.84e7	1.59e7	inactive
BBS5 (Bardet-Biedl syndrome 5)	1	2.77e7	4.95e7		1.36e7	2.05e7	inactive
dmrt93B (doublesex-Mab related 93B)	1	3.98e7	4.91e7		6.16e7	2.10e7	inactive
